Results on 1 compound are retold here after patent publication US8580854B2, “Methods of suppression of rage gene expression and rage triggered inflammatory genes by selected age-inhibitors” (City of Hope, priority 2005, dated 2013).

Structures are written as SMILES.

The subject of one data set is STZ-diabetic rats. Nature of the data set: Body weight, glycemic control and albuminuria in STZ-induced diabetic rats given LR-90 in drinking water for 32 weeks. The class given is in vivo, rat. Here is the method:
Animal studies were carried out in compliance with policies outlined in “The Guide for the care and Handling of Laboratory Animals” (NIH Publication No. 85-23), which have been approved by the City of Hope National Medical Center Animal Care Committee. Induction of diabetes by STZ and all other procedures were according to the previously published article on LR-90 (25), except that in the present study the diabetic rats under treatment were randomized in 5 groups of ten each: one diabetic control group (0 mg/L), one group receiving 2.5 mg/L, one group receiving 10 mg/L, a third group receiving 20 mg/L and a fourth group receiving 50 mg/L of LR-90 in drinking water (FIG. 1). Both plasma glucose and body weight were checked before administration of the drug, and no differences were detected among the two non-diabetic groups and five diabetic treatment groups. All animals were housed individually and were given free access to food (Purina rodent chow 5001, Ralston Purina, Richmond, Ind., USA) and water. Glycemic control and body weights were monitored periodically. In order to limit hyperglycemia and ensure that animals maintained body weight, diabetic animals received 3 IU of ultralente insulin (Humulin U, Eli Lilly, Indianapolis, Ind., USA) two to three times per week. The study was carried out over 32 weeks.
Blood (from the tail vein) and urine samples were collected from rats for glycemic control analysis and albuminuria measurements. Plasma glucose was measured using a glucose analyzer machine (YSI 2300 STAT, Yellowsprings, Ohio, USA). HbAlc concentration was measured by HPLC (BioRad DIAMAT, Hercules, Calif., USA). Total plasma triglycerides and cholesterol concentrations were quantified at the end of the study using the Vitros 250 Chemistry System (Johnson & Johnson, Rochester, N.Y., USA). Progression of renal dysfunction was assessed by measuring urinary albumin-to-creatinine ratio (ACR). Rats were housed in metabolic cages (Nalge, Rochester, N.Y., USA) for 24 hr and urine was collected in a collection beaker with several drops of toluene to inhibit microbial growth. Urinary albumin and creatinine concentrations were quantified immunologically using the Nephrat/Creatinine Companion kits (Exocell), and the ACR value was calculated for each rat.
At the end of study, the rats were weighed and anaesthetized with isofluorane and blood was drawn by heart puncture and transferred into heparinized and non-heparinized vacutainer tubes on ice. These blood samples were later centifuged for plasma and serum collection respectively, and stored at −70° C. until the time of analysis. Rats were killed by over-anesthetization and cardiac puncture and the kidneys were removed immediately, weighed, decapsulated and rinsed in PBS buffer. Sections of the kidneys were stored in 10% NBF for subsequent microscopic examinations and immunohistochemistry.
Statistical analyses were performed using Prism software (GraphPad, San Diego, Calif., USA). Unless otherwise indicated, data are presented as Means±Std. Group comparisons were analyzed using one-way ANOVA and subsequent post-hoc analysis by Tukey's test. A P value of less than 0.05 was considered statistically significant.

Another data set concerns non-diabetic rats. Nature of the data set: Non-diabetic control rats given LR-90 in drinking water for 32 weeks. In kind it is in vivo, rat. How it is done:
Animal studies were carried out in compliance with policies outlined in “The Guide for the care and Handling of Laboratory Animals” (NIH Publication No. 85-23), which have been approved by the City of Hope National Medical Center Animal Care Committee. Induction of diabetes by STZ and all other procedures were according to the previously published article on LR-90 (25), except that in the present study the diabetic rats under treatment were randomized in 5 groups of ten each: one diabetic control group (0 mg/L), one group receiving 2.5 mg/L, one group receiving 10 mg/L, a third group receiving 20 mg/L and a fourth group receiving 50 mg/L of LR-90 in drinking water (FIG. 1). Both plasma glucose and body weight were checked before administration of the drug, and no differences were detected among the two non-diabetic groups and five diabetic treatment groups. […] Glycemic control and body weights were monitored periodically. […]
Blood (from the tail vein) and urine samples were collected from rats for glycemic control analysis and albuminuria measurements. Plasma glucose was measured using a glucose analyzer machine (YSI 2300 STAT, Yellowsprings, Ohio, USA). HbAlc concentration was measured by HPLC (BioRad DIAMAT, Hercules, Calif., USA). […] Progression of renal dysfunction was assessed by measuring urinary albumin-to-creatinine ratio (ACR). […]

The mark [1] stands for this setting: difference not statistically significant.

Regarding `CC(C)(Oc1ccc(NC(=O)Nc2ccc(Cc3ccc(NC(=O)Nc4ccc(OC(C)(C)C(=O)O)cc4)c(Cl)c3)cc2Cl)cc1)C(=O)O` [LR-90], the Body wt. in the data set with STZ-diabetic rats (2.5 mg per liter drinking water daily) is given as 305.8 ± 52.1 g; with STZ-diabetic rats (10 mg per liter drinking water daily) it was 306.8 ± 71.4 g; in the data set on STZ-diabetic rats (25 mg per liter drinking water daily) it was 312.0 ± 71.9 g; in the data set on STZ-diabetic rats (50 mg per liter drinking water daily) it was 326.4 ± 62.3 g; in the data set on non-diabetic rats (50 mg per liter drinking water daily, 32 weeks) it was 698.5 ± 93.4 g. For the same compound, the “body weight compared with untreated counterparts” value in the data set with STZ-diabetic rats (setting [1]) and with non-diabetic rats (setting [1]) was “slight increase in weight” in each case.
